# Results are given in words; binding and its absence hold for the method and conditions named. Some binding calls cover weakened binding; strength is not graded here.
# T1: rat growth hormone binding protein (rGHBP) (rat) (UniProt P16310)
# T1 sequence (looked up): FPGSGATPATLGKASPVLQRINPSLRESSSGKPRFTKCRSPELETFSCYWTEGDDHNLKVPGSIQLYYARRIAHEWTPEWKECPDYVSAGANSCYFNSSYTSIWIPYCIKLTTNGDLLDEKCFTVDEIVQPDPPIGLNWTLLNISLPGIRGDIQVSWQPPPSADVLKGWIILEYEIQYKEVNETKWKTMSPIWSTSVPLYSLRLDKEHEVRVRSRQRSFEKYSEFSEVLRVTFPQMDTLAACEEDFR
# Target: T1, rat growth hormone binding protein (rGHBP) (rat)
# Assay: phage ELISA competition on rGHBP (100 ng/well); synthetic peptide (with KK at the C-terminus) against H5 phage, 10^10/well
row,binding,Binder
1,binds,DYKDLCQRLGVTWPGWLAGWCA (biotinylated in Table I (position not given)) [peptide #443]

# Target: T1, rat growth hormone binding protein (rGHBP) (rat)
# Assay: phage ELISA on rGHBP-coated wells (100 ng/well); clones from panning of the secondary H5 library
row,Binder,binding
1,LCQRLEATWPGWLVGWCA,binds
2,LCQRLGATWPGWLAGWCA,binds
3,LCQRLGVGWPGWVAGWCA,binds
4,LCQSLGVTYPGWLAGWCG,binds
5,MCQSLGVTYPGWLAGWCA,binds
6,LCQRLGVGWPGWLSGWCA,binds
7,LCQSLAVTYPGWLAGWCA,binds
8,LCQSLGVTYPGWLDGWCA,binds
9,LCQSLGVKYPGWLAGWCA,binds
10,LCQSLGLTYPGWLAGWCG,binds
11,LCQSLGVAYPGWLAGWCA,binds
12,LCQRLGVTWPGWLTGWCA,binds
13,LCQRLVVGWPGWLAGWCA,binds
14,LCQRLGIGWPGWLAGWCA,binds
15,LCQSLGEAYPGWLAGWCA,binds
16,LCQSLGVTYPGWLAAWCR,binds
17,LCQALGVTYPGWLAGWCA,binds
18,LCQTLGVTYPGWLAGWCA,binds
19,LCQSLGVTYPGWLSGWCA,binds
20,LCQRLGVTWPGWLAGWCA,binds
21,LCQSLGVNWPGWLAGWCA,binds
22,LCQSLGVTYPGWLTGWCA,binds
23,LCQRLGVTWPGWIAGWCA,binds
24,LCQSLGVWWPGWLAGWCA,binds

# Continued, values first:
row,binding,Binder
1,binds,LCQNLGITWPGWLAGWCA
2,binds,LCQSLGVRYPGWLAGWCA
3,binds,LCQSLRVRQPGWLSGWCA
4,binds,LCQNLGVTWPGWLAGWCA
5,binds,LCQSLGLRYPGWLAGWCA
6,binds,LCQSLGVTYPGWLAGWCS
7,binds,LCQRLGVGWPGWLAGWCA
8,binds,LCQHLGVTWPGWLAGWCA
9,binds,LCQSLGIGYPGWLTGWCA
10,binds,LCQSLGVGWPGWLAGWCA
11,binds,LCQSLGPTYPGWLAGWCA
12,binds,LCQRLGVTYPGWLAGWCA
13,binds,LCQSLGVTFPGWLSGWCA
14,binds,LCQSLGATYPGWLWGWCA
15,binds,LCQSLPVRYPGWLSGWCS
16,binds,LCQSLGDTYPGWLAGWCA
17,binds,LCQSLGVSWPGWLTGWCA
18,binds,LCQRLGLTWPGWLAGWCA
19,binds,LCQRFGVGFPGWLAGWCA

row,binding,Binder
1,binds,LCQRLGVTWPGWLWGWCA
2,binds,LCQSLGVTYPGWLVGWCA
3,binds,LCQTLGVKYPGWLAGWCA
4,binds,LCQSLGVTFPGWLAGWCA
5,binds,LCQSLGVTWPGWLAGWCA
6,binds,LCQRLGVSWPGWLAGWCA
7,binds,LCQSLGVSYPGWLTGWCA
8,binds,LCQSLGVLYPGWLAGWCA
9,binds,LCQSLGVGWPGWLTGWCA
10,binds,LCQSLGVGYPGWLAGWCA
11,binds,LCQSLGVKYPGWLTGWCA
12,binds,LCQSLGVNYPGWLAGWCA
13,binds,LCQSLGDKYPGWLAGWCA
14,binds,LCQSLGATWPGWLAGWCA
15,binds,LCQSLGITYPGWLAGWCA
16,binds,LCQSLGFTYPGWLAGWCA
17,binds,LCQSWQVTWPGWLAGWCA
18,binds,LCQSLGVSYPGWLAGWCA
19,binds,LCQSLGVSYPGWLVGWCA

# Target: T1, rat growth hormone binding protein (rGHBP) (rat)
# Assay: BIAcore appKD
row,binding,Binder
1,binds,DYKDLCQRLEATWPGWLVGWCA [peptide #417]
2,binds,DYKDLCQRLGVTWPGWLAGWCA (biotinylated in Table I (position not given)) [peptide #443]
